42 sequences from paper PMC7819943, “Rice protein-binding microarrays: a tool to detect cis-acting elements near promoter regions in rice” can be followed below.

Amino acid sequences for entries named in this document (tags omitted).
UniProt Q0JBA9, entry or part of it: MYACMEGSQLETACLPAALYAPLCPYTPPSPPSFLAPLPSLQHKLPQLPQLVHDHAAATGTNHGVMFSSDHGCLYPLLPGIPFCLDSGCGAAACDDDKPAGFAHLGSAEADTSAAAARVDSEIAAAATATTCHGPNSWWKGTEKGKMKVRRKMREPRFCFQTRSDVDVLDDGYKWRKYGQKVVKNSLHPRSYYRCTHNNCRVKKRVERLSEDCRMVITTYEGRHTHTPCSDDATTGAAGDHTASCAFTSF

This is one part of the list.

The assay deals with OsWRKY34 (Oryza sativa, UniProt Q0JBA9 1-250). In words: protein-binding microarray (RPBM); PBS, 2% BSA, 51.3 ng/ul salmon testes DNA, 50 uM zinc acetate, 200 nM TF, 25 C, 1 h; high values mean tight binding. Conditions: protein: recombinant; tags: N-terminal polyhistidine and DsRed monomer fusion (pET32a); label: CyDye5-dUTP incorporated in the synthesized complementary strand; 3' TTTTT single-stranded linker to array surface; dsDNA, one strand shown. In short, it runs like this:
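For the binding signal, per-feature fluorescence intensity was read in arbitrary units on an Axon 4000B scanner. Before scanning, a 2% BSA-blocked custom Agilent array made double-stranded with Cy5-dUTP was washed after 1 h at 25 °C with 200 nM protein and 50 µM zinc acetate. The proteins were Ni–NTA-purified transcription factors with N-terminal polyhistidine and DsRed fusions, expressed in E. coli BL21-CodonPlus.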
“GCTTGGCCGTCGGGGTACGGGTACGGCGCCGTGTTGACCACGGAGTCACCTAGTGCAG”: the binding signal is 9100 fluorescence intensity (a.u.).
In the case of “TGTCGATGTCGCATACTCCGTTCGGTTTTATTTTAATTGACGGAGTCACCTAGTGCAG” it was 9800 fluorescence intensity (a.u.).
As for “CGACCCCTGCAAACTTATTTCTGTCGGTTTAATCTCTCTCCGGAGTCACCTAGTGCAG”, the binding signal was 9960 fluorescence intensity (a.u.).
The value for “TTGACTTTTTAACCAACGTTTGACTATTCGTCTTATTCAACGGAGTCACCTAGTGCAG” was 10100 fluorescence intensity (a.u.); that for “GCTGCTTTTTTTTCTCTTCCTATGTGGTTCTTCGTCATCACGGAGTCACCTAGTGCAG” was 8430 fluorescence intensity (a.u.); that for “CCTTTTCAGTGCCATTGATTTTTCTTTTATTTTGTCTCGTCGGAGTCACCTAGTGCAG” was 10000 fluorescence intensity (a.u.).
In the case of “ACCCGCCGTCTGCCACGTCAGCTTGCCGCCCACCTCTGGGCGGAGTCACCTAGTGCAG” it was 9540 fluorescence intensity (a.u.); in that of “TTCACCTCCCAACATTCTCGCCGATCTTTTTCCTCTCATCCGGAGTCACCTAGTGCAG”, 9670 fluorescence intensity (a.u.); in that of “CCGCGCGGCACTACTTCCGGCAGCTCGTCTCCGCCGTCGACGGAGTCACCTAGTGCAG”, 9150 fluorescence intensity (a.u.).
The value for “GCATGTGTGCCATTCGTTCATTCATATTCTCATCACTAGTCGGAGTCACCTAGTGCAG” was 9720 fluorescence intensity (a.u.).
For the sequence “CCTTTCTGGCTATAATCTCTCTTGTTCCGTTTTCGCAATGCGGAGTCACCTAGTGCAG”, the binding signal was 8400 fluorescence intensity (a.u.).
Consider “CTTGCATGTTTGTGGAGTGATATATTACATATTGATCTATCGGAGTCACCTAGTGCAG”, for which the binding signal was 9230 fluorescence intensity (a.u.).
“TGTGGTTGGGTTCAGGGATGATTTTGCAAACTACAGATGACGGAGTCACCTAGTGCAG”: the binding signal is 9240 fluorescence intensity (a.u.).
On to “CCGCGCCACCGATGTTCTCATCCAAACACATCACCTCCTACGGAGTCACCTAGTGCAG”, for which the binding signal was 8030 fluorescence intensity (a.u.).
The value for “GGGCCCGCCATCGACCGAGCCACCGAAATCCCGCGCAAAGCGGAGTCACCTAGTGCAG” was 8420 fluorescence intensity (a.u.); that for “TTGCCCATTAATTTACCCAAGTATCCATGCGGACCATGCCCGGAGTCACCTAGTGCAG” was 8940 fluorescence intensity (a.u.); that for “CTCTCTATAATGTCATTGGACCTACTTTACATGGTTTAAACGGAGTCACCTAGTGCAG” was 8830 fluorescence intensity (a.u.).
In the case of “ACCGCTATCCCTCATCACCCACTGACAAGTTGCCCCACACCGGAGTCACCTAGTGCAG” it was 10500 fluorescence intensity (a.u.); in that of “TTGTCTCAGCTGCATTATCCTATTTTTAGCTCCCAAATCTCGGAGTCACCTAGTGCAG”, 9070 fluorescence intensity (a.u.); in that of “CTAGTCCTTCGTTTGAGTCCTTATATAACATTGATAGTACCGGAGTCACCTAGTGCAG”, 8500 fluorescence intensity (a.u.).
For the sequence “TCGTTGTCCGCATAGTTTAGATTAGATTTACACGGCTTTACGGAGTCACCTAGTGCAG”, the binding signal was 9150 fluorescence intensity (a.u.).
Consider “GCGCCCGCTTGCTGCCATTTTGCTTGTGGACTACCCTTTCCGGAGTCACCTAGTGCAG”, for which the binding signal was 10700 fluorescence intensity (a.u.).
In the case of “CGCGTTATTTTCAGCGGTTGGGTTTGGATGATTAGCTACACGGAGTCACCTAGTGCAG” it was 9550 fluorescence intensity (a.u.).
The value for “CATCTTCGCAGCAACTCAGTCATCAGCCCATAGCCATTTACGGAGTCACCTAGTGCAG” was 8950 fluorescence intensity (a.u.); that for “CTTCTCGTGCAACTCTAGTACATGGGTTTCGGAATAGTGACGGAGTCACCTAGTGCAG” was 9640 fluorescence intensity (a.u.); that for “CACACTCCACAGACGTCTACCTGACTTTTTATGCTATGTTCGGAGTCACCTAGTGCAG” was 10400 fluorescence intensity (a.u.).
In the case of “GACCGGCATTACACTTCTCCTAATATATGGGATTAGGTGACGGAGTCACCTAGTGCAG”, the binding signal was 9510 fluorescence intensity (a.u.).
With “ACCTACCTGACTTCACCGTTCGAGTTCAACAATACCTATGCGGAGTCACCTAGTGCAG”, the binding signal was 9060 fluorescence intensity (a.u.).
As for “TTTTCTGGCCTTAGCGGCACATAGATTTCCGCCCAAAACCCGGAGTCACCTAGTGCAG”, the binding signal was 10800 fluorescence intensity (a.u.).
On to “CGATCTCTGTTGTATAAATCTTGTCATATTTCGTTAACGACGGAGTCACCTAGTGCAG”, for which the binding signal was 9240 fluorescence intensity (a.u.).
For “AACTCTATCGCTCTTTTCCTAACTATCTGTTCTATGTACCCGGAGTCACCTAGTGCAG”, the binding signal is 8160 fluorescence intensity (a.u.).
The value for “ATATCATTTAAAATATTTTTTTTATCGACATGTGGTTGTCCGGAGTCACCTAGTGCAG” was 11000 fluorescence intensity (a.u.).
In the case of “GAACTTTCCTACACACACAAATTTTCAACTTTTCCATCACCGGAGTCACCTAGTGCAG” it was 12400 fluorescence intensity (a.u.).
As to “TTCATATAGGGTATGCCTCTGTCTAAGGTTGTTTGAAAATCGGAGTCACCTAGTGCAG”, the binding signal was 8940 fluorescence intensity (a.u.).
In the case of “CCTTTTTTTTTACCTACCTCACCACTCAACCTTTTTGCCCCGGAGTCACCTAGTGCAG” it was 8660 fluorescence intensity (a.u.); in that of “TTTGCTCGGAGGATAGTATGGCTTTGGGTGGGCCGGATTCCGGAGTCACCTAGTGCAG”, 11100 fluorescence intensity (a.u.); in that of “TCAGATTCAGCTTCATATGCATACCGTACGACTGTCAATTCGGAGTCACCTAGTGCAG”, 9540 fluorescence intensity (a.u.).
The value for “CTGTCCGATCCCCTGTCCCAGCACCCTCGTCGCATGTCCACGGAGTCACCTAGTGCAG” was 12500 fluorescence intensity (a.u.); that for “TCCTCTCTTCCCGTCACCTTGGTTTGCCGTCGTCGGCGTCCGGAGTCACCTAGTGCAG” was 9270 fluorescence intensity (a.u.); that for “GTTAACCCCTGTTATATTCATGATTAGTTGCTATTAATTCCGGAGTCACCTAGTGCAG” was 9750 fluorescence intensity (a.u.).
The value for “TGACTTGTATTTCTTGTGTCTGTTTCTCATCGAGTCATGACGGAGTCACCTAGTGCAG” was 10900 fluorescence intensity (a.u.).
Consider “TTCTTTAATCATTATCTTCAGACATGAATCACGTTGACTGCGGAGTCACCTAGTGCAG”, for which the binding signal is 9740 fluorescence intensity (a.u.).
